This is one part of the list.
Columns and labels:
Experiment in all cases: log2 fold change, soluble protein after heating vs DMSO (PISA); higher = thermal stabilisation; K562 lysate, 10 uM; active = over 0.2 and 3.5 SD of the protein, either way, in both replicates (recomputed)
nilotinib = compound: Cc1cn(-c2cc(NC(=O)c3ccc(C)c(Nc4nccc(-c5cccnc5)n4)c3)cc(C(F)(F)F)c2)cn1 [nilotinib]
How it was run: (§1)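 Soluble protein was defined as the supernatant remaining after 21,000xg for 90 min, following pooling of heated aliquots and adjustment to 0.5% NP-40 at 4°C. Before that, crude K562 extract at 1 mg/mL protein in PBS pH 7.4 with 1 mM MgCl2 was treated with 10 μM compound for 30 min and heated for 3 min across 48°C-58°C. Quantification used TMTpro 16plex LC-MS/MS with channel sums equalised, and values are log-two fold changes in thermal stability relative to solvent controls from duplicates.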

Protein sequences, listed by entry. Tags and fused reporters are not part of them. Lines headed by an entry give the natural chain unless they say otherwise; changes in a name come on top.
UniProt P78364: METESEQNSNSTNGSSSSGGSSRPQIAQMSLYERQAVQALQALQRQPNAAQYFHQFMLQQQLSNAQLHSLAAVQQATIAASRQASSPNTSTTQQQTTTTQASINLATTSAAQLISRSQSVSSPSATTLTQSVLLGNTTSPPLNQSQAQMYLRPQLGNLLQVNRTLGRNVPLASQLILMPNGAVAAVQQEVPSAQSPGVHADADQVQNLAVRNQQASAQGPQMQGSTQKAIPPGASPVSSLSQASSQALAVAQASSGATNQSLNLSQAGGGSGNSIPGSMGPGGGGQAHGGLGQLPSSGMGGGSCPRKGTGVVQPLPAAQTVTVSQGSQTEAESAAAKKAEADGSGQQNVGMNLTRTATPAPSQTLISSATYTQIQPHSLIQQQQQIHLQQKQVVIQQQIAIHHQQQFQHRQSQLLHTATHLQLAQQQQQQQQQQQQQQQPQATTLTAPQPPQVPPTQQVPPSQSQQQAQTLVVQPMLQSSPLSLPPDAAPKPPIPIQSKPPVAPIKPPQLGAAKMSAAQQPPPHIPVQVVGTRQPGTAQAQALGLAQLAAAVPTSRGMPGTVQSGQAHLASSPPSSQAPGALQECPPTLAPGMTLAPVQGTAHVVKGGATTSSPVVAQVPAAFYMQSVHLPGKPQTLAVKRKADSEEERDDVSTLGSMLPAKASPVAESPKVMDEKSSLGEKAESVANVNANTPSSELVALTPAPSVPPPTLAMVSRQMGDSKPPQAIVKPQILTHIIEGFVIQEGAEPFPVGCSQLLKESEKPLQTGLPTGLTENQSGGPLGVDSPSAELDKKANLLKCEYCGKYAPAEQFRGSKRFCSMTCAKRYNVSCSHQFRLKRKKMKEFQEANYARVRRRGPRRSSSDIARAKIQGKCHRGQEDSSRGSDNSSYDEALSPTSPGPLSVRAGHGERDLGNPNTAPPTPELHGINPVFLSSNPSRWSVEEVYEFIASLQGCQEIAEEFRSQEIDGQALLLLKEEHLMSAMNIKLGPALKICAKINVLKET
UniProt Q8N2W9: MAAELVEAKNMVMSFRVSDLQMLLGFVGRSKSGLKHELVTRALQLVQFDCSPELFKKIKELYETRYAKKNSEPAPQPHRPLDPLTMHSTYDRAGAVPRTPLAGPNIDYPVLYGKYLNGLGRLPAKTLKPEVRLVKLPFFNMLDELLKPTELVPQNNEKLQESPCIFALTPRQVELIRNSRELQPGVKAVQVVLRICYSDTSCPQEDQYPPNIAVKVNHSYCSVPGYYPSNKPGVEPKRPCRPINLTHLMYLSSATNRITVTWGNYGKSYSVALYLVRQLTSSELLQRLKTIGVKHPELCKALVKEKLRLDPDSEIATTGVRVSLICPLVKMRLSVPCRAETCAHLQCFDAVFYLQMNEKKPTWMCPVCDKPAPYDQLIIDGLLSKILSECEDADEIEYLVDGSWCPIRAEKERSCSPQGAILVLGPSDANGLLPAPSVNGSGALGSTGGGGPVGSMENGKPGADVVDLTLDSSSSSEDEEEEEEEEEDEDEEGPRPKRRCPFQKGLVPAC
UniProt O75925, whole entry, looked up: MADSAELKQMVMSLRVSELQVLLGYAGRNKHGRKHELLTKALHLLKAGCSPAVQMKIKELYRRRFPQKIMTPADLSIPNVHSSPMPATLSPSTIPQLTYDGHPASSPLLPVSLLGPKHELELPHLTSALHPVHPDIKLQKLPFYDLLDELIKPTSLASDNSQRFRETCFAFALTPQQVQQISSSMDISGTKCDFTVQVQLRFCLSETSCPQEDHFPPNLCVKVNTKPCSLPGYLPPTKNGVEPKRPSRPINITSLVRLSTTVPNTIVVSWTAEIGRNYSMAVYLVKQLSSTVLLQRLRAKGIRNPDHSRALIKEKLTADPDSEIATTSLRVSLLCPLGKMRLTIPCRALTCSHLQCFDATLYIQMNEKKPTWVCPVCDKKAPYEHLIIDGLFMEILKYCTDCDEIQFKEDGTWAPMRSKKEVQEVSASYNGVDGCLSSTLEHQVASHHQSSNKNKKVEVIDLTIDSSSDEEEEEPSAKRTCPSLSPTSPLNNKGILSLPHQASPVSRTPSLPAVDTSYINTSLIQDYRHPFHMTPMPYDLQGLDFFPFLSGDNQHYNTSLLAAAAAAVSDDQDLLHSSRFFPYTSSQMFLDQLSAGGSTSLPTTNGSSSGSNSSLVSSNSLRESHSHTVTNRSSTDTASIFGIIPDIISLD
UniProt Q92521: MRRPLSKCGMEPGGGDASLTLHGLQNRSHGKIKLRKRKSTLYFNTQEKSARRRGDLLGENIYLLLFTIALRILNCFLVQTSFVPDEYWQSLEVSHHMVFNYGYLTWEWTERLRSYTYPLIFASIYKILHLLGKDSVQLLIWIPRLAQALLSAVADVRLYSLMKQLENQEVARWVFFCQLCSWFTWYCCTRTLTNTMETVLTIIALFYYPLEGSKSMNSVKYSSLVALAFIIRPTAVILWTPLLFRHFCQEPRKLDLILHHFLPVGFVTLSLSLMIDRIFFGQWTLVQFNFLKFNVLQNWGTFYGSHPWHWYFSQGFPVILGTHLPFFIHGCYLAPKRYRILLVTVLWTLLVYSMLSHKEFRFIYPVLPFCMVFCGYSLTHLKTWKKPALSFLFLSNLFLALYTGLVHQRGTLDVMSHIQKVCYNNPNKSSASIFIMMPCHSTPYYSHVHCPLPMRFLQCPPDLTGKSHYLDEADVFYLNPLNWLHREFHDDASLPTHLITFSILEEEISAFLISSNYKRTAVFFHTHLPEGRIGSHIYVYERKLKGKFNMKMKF
UniProt Q6NSJ2: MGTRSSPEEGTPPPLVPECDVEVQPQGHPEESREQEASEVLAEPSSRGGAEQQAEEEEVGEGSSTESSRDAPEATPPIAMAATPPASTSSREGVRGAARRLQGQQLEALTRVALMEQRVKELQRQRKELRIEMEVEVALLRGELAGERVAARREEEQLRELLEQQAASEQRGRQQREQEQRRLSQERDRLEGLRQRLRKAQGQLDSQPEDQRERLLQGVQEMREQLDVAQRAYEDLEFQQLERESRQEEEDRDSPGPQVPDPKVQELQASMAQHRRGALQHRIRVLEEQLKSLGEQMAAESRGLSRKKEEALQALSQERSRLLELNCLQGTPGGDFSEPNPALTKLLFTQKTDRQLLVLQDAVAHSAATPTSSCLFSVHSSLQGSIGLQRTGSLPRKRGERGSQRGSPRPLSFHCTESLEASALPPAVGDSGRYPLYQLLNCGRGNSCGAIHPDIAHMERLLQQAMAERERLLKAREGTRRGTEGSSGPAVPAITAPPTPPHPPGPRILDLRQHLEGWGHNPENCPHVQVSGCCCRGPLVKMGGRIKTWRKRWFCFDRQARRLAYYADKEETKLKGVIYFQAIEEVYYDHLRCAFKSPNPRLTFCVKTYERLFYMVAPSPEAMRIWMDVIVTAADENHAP
UniProt Q9C010: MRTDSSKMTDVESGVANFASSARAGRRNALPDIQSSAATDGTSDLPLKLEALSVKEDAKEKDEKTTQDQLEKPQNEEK
UniProt Q8IUZ5: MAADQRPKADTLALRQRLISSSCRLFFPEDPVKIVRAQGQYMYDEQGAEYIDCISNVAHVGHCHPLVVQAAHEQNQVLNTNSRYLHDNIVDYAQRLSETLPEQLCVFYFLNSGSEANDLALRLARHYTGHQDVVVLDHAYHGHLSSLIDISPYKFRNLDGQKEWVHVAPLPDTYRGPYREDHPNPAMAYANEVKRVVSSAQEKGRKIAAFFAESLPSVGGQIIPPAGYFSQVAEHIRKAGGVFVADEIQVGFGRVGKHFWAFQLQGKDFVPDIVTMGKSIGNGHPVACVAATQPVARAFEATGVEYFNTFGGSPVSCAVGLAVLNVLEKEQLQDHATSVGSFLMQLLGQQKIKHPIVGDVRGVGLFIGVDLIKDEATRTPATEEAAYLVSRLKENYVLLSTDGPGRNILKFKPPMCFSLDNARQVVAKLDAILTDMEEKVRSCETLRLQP
UniProt P78337, whole entry, looked up: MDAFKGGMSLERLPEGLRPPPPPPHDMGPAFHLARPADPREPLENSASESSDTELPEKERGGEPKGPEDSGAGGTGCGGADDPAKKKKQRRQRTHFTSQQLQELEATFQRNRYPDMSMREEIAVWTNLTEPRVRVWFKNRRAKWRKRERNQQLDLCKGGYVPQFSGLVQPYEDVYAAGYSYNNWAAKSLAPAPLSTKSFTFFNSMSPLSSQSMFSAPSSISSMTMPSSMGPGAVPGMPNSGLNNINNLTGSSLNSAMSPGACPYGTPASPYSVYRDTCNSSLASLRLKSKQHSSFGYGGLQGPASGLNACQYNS
UniProt P08567: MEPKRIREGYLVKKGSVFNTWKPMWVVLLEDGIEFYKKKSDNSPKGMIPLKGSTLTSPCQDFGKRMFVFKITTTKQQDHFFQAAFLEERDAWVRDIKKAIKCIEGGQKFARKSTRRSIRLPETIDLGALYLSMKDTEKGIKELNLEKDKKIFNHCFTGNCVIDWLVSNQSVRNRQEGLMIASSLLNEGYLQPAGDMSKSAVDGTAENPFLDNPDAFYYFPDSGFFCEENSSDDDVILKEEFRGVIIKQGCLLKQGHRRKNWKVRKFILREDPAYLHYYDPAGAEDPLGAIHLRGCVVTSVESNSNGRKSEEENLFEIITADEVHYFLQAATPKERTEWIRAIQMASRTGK
UniProt Q9Y2B2: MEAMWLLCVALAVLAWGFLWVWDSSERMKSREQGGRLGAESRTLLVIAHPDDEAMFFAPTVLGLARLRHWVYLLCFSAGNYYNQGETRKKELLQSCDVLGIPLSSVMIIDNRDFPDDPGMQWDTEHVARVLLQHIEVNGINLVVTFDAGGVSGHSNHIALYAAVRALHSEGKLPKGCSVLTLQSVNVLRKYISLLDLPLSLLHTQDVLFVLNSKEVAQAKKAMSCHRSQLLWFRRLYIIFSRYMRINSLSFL
UniProt Q9BVI0: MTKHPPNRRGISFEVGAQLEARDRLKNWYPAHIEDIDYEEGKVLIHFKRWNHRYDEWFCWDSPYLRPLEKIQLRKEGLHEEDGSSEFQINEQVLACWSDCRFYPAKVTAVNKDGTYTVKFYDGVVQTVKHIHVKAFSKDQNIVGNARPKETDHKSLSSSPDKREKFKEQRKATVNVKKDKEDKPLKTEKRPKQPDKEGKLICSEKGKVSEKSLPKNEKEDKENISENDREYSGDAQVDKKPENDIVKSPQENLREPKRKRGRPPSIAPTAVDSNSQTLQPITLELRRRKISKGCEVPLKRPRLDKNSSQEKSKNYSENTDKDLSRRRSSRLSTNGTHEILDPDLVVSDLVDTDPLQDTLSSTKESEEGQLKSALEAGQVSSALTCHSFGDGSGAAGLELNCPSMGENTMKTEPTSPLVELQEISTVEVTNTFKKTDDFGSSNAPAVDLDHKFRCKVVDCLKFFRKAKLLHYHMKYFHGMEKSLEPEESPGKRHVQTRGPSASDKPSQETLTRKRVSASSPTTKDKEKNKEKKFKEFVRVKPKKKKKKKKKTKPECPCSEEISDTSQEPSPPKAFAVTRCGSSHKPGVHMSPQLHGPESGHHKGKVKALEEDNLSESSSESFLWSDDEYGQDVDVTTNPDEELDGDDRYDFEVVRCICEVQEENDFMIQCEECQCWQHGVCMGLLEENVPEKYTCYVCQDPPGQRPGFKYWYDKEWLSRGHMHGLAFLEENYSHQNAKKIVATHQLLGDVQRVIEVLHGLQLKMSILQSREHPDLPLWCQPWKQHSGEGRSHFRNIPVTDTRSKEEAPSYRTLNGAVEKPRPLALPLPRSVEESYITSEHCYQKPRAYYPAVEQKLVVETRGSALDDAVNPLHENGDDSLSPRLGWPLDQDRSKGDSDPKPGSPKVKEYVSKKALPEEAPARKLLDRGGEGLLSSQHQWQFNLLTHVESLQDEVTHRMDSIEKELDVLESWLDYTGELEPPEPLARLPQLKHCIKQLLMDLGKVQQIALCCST
PIGBOS1, A0A0B4J2F0, UniProt A0A0B4J2F0, whole entry, looked up: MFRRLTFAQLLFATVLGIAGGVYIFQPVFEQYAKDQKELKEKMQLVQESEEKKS
UniProt Q14442: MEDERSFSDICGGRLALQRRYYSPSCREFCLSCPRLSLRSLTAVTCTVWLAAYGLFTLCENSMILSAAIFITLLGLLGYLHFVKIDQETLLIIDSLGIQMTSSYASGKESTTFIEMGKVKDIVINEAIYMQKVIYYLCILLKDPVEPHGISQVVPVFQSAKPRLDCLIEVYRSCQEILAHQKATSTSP
UniProt O14986: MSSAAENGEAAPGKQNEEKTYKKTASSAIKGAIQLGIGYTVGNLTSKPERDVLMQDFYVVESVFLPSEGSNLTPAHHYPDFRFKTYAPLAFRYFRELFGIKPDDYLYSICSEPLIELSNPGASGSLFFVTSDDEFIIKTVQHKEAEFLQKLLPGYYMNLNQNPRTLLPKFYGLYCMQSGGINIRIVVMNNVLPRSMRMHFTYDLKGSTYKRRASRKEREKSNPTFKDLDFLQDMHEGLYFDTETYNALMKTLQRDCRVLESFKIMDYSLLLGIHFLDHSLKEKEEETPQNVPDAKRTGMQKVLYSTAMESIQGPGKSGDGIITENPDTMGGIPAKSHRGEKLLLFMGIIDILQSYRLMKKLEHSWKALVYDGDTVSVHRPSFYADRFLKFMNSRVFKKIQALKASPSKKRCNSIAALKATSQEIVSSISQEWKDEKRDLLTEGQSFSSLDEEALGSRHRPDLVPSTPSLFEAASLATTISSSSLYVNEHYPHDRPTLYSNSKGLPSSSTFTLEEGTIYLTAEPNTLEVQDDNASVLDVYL

[1] = compound: Cc1nc(Nc2n[nH]c3c2CN(C(=O)N[C@H](CN(C)C)c2ccccc2)C3(C)C)c2sccc2n1
How it was run: as §1

[2] = compound: Cc1ncc(-c2ccnc(Nc3ccc(S(C)(=O)=O)cc3)n2)n1C(C)C
How it was run: as §1

quisinostat = compound: Cn1cc(CNCC2CCN(c3ncc(C(=O)NO)cn3)CC2)c2ccccc21 [quisinostat]
How it was run: as §1

tipifarnib = compound: Cn1cncc1[C@@](N)(c1ccc(Cl)cc1)c1ccc2c(c1)c(-c1cccc(Cl)c1)cc(=O)n2C [tipifarnib]
How it was run: as §1

[3] = compound: NC(=O)Nc1cc(-c2cccc(F)c2)sc1C(=O)N[C@H]1CCCNC1
How it was run: as §1

[4] = compound: NCC(=O)Nc1ccc(-n2nc(C(F)(F)F)cc2-c2ccc3c(ccc4ccccc43)c2)cc1
How it was run: as §1

[5] = compound: O=C1NC(=O)C(c2cnc3ccccn23)=C1c1cn2c3c(cc(F)cc13)CN(C(=O)N1CCCCC1)CC2
How it was run: as §1

entospletinib = compound: c1cn2cc(-c3ccc4cn[nH]c4c3)nc(Nc3ccc(N4CCOCC4)cc3)c2n1 [entospletinib]
How it was run: as §1

[6] = compound: NC1(c2ccc(-c3nc4ccn5c(=O)[nH]nc5c4cc3-c3ccccc3)cc2)CCC1
How it was run: as §1

vorinostat = compound: O=C(CCCCCCC(=O)Nc1ccccc1)NO [vorinostat]
How it was run: as §1

silmitasertib = compound: O=C(O)c1ccc2c(c1)nc(Nc1cccc(Cl)c1)c1ccncc12 [silmitasertib]
How it was run: as §1

dasatinib = compound: Cc1nc(Nc2ncc(C(=O)Nc3c(C)cccc3Cl)s2)cc(N2CCN(CCO)CC2)n1 [dasatinib]
How it was run: as §1

[7] = compound: Cn1cc(-c2ccc3c(c2)CCN3C(=O)Cc2cccc(C(F)(F)F)c2)c2c(N)ncnc21
How it was run: as §1

[8] = compound: NC(=O)c1cnc(N[C@@H]2CCCC[C@@H]2N)nc1Nc1cccc(-n2nccn2)c1
How it was run: as §1

Measured: log2 fold change

PHC2 isoform 5 (UniProt Q8IXK0)
inactive: nilotinib 0.095 | [1] 0.085 | [2] 0.461 | quisinostat 0.056 | tipifarnib -0.268 | [3] 0.029 | [4] -0.065 | [5] -0.024 | entospletinib 0.044

PHF19 (UniProt Q5T6S3)
inactive: nilotinib 0.001 | [1] 0.137 | [2] 0.039 | quisinostat 0.077 | tipifarnib -0.209 | [3] -0.062 | [6] -0.1 | vorinostat -0.187 | silmitasertib 0.037 | [5] -0.082

PIGX isoform 2 (UniProt Q8TBF5)
inactive: nilotinib 0.025 | [1] 0.053 | dasatinib -0.005 | [2] 0.179 | [7] 0.113 | quisinostat 0.031 | tipifarnib -0.004 | [3] 0 | [8] 0.067 | [5] 0.068 | entospletinib -0.051

PHC1 (UniProt P78364)
inactive: nilotinib 0.054 | [1] 0.023 | dasatinib 0.087 | [2] -0.024 | [7] -0.049 | quisinostat -0.003 | tipifarnib -0.02 | [3] 0.003 | [4] 0.042 | [5] 0.151 | entospletinib 0.073

PIGW (UniProt Q7Z7B1)
inactive: nilotinib -0.076 | [1] 0.22 | dasatinib 0.034 | [2] 0.101 | [7] -0.029 | quisinostat -0.004 | tipifarnib -0.113 | [3] -0.003 | [4] -0.064 | [5] 0.001

PHLPP1 (UniProt O60346)
inactive: nilotinib 0.143 | [1] 0.131 | dasatinib -0.043 | [2] -0.287 | [7] -0.129 | quisinostat -0.118 | tipifarnib -0.162 | [3] 0.005 | [6] 0.018 | [4] -0.099 | vorinostat -0.082 | silmitasertib -0.067 | [5] -0.073

PIAS4 (UniProt Q8N2W9)
inactive: nilotinib -0.032 | [1] 0.096 | dasatinib 0.069 | [2] -0.015 | [7] -0.071 | quisinostat -0.06 | tipifarnib -0.087 | [3] -0.018 | [6] 0.14 | [4] 0.043 | vorinostat -0.062 | silmitasertib 0.042 | [5] -0.062 | entospletinib -0.031

PKMYT1 (UniProt Q99640)
inactive: nilotinib 0.045 | [1] 0.101 | dasatinib 0.34 | [2] 0.028 | [7] -0.086 | quisinostat 0.158 | tipifarnib -0.052 | [3] -0.1 | [4] -0.031 | [5] -0.062 | entospletinib 0.001

PIAS1 isoform 2 (UniProt O75925)
inactive: nilotinib -0.106 | [1] -0.103 | dasatinib 0.151 | [2] 0 | [7] -0.068 | quisinostat -0.023 | tipifarnib -0.183 | [3] -0.074 | [6] 0.06 | vorinostat -0.607 | silmitasertib 0.018 | [5] 0

PKM (UniProt H3BTN5)
inactive: quisinostat 0.048 | [3] -0.05 | [8] 0.027 | [6] 0.077 | [4] 0.003 | vorinostat 0.252 | silmitasertib 0.108 | [5] 0.081 | entospletinib 0.007

PIGB (UniProt Q92521)
inactive: quisinostat -0.041 | [3] 0.011 | [4] -0.159 | [5] 0 | entospletinib -0.26

PIK3AP1 (UniProt Q6ZUJ8)
inactive: dasatinib -0.045 | [7] 0.177 | quisinostat -0.029 | [3] 0.124 | [5] 0 | entospletinib 0.001

PHLDA2 (UniProt Q53GA4)
inactive: dasatinib -0.093 | [7] -0.302 | quisinostat -0.133 | [3] 0.079 | [6] -0.138 | [4] 0.027 | vorinostat -0.199 | silmitasertib 0.036 | [5] -0.166

PGM1 isoform 2 (UniProt P36871)
inactive: dasatinib 0.087 | [7] -0.152 | [6] 0.293 | vorinostat 0.488 | silmitasertib -0.093 | entospletinib -0.097

PHF19 isoform 2 (UniProt Q5T6S3)
inactive: [4] 0.063 | entospletinib 0.021

PGM3 (UniProt D6RCQ8)
inactive: [8] -0.161

PHLDB3 (UniProt Q6NSJ2)
inactive: quisinostat -0.233 | [3] 0.115 | [6] -0.155 | vorinostat 0.135 | silmitasertib 0.041 | [5] 0.216

PKIB isoform 2 (UniProt Q9C010)
inactive: [8] 0.023

PHOSPHO2 (UniProt C9JD35)
inactive: quisinostat 0.073 | [3] -0.102 | [5] 0.004 | entospletinib 0.155

PHYKPL (UniProt Q8IUZ5)
inactive: dasatinib -0.184 | [7] -0.061 | quisinostat 0.05 | [3] 0.123 | [8] -0.031 | [6] 0.04 | [4] -0.071 | vorinostat 0.009 | silmitasertib 0.018 | [5] -0.008 | entospletinib -0.015

PIGQ (UniProt Q9BRB3)
inactive: quisinostat -0.012 | [3] 0.011 | [8] 0.011 | [4] -0.101 | [5] 0.014 | entospletinib -0.098

PKP4 (UniProt Q99569)
inactive: dasatinib -0.138 | [7] -0.099 | entospletinib -0.102

PKLR (UniProt F8W6W2)
inactive: [4] 0.098

PHF13 (UniProt Q86YI8)
inactive: quisinostat -0.399 | [3] -0.009 | [8] 0.052 | [5] 0.016

PICALM (UniProt H0YCY1)
inactive: [6] 0.013 | vorinostat 0.202 | silmitasertib -0.07

PIGA (UniProt P37287)
inactive: dasatinib -0.03 | [7] -0.018 | quisinostat -0.073 | [3] -0.004 | [8] -0.045 | [6] -0.096 | [4] 0.034 | vorinostat 0.126 | silmitasertib -0.076 | [5] 0 | entospletinib -0.127

PLEKHG2 (UniProt Q9H7P9)
inactive: dasatinib 0.094 | [7] 0.176 | [6] 0.034 | vorinostat -0.14 | silmitasertib 0.039 | entospletinib 0.178

PGK2 (UniProt P07205)
inactive: [8] 0.07 | [4] -0.112 | entospletinib -0.066

PITX1 (UniProt P78337)
inactive: dasatinib 0.058 | [7] -0.254 | quisinostat -0.105 | [3] 0.107 | [4] 0.225 | [5] -0.105 | entospletinib 0.046

PIGM (UniProt Q9H3S5)
inactive: quisinostat -0.021 | [3] 0.057 | [8] -0.05 | [6] -0.2 | [4] -0.024 | vorinostat 0.039 | silmitasertib 0.009 | [5] 0.025 | entospletinib 0.044

PLEK (UniProt P08567)
inactive: quisinostat 0.072 | [3] -0.025 | [6] -0.065 | vorinostat 0 | silmitasertib -0.066 | [5] 0.008 | entospletinib 0

PLCB4 isoform 4 (UniProt Q15147)
inactive: [8] 0.125 | [6] -0.192 | vorinostat 0.014 | silmitasertib -0.13 | entospletinib 0.119

PIGL (UniProt Q9Y2B2)
inactive: dasatinib -0.067 | [7] -0.075 | quisinostat 0.032 | [3] -0.076 | [8] -0.037 | [6] -0.109 | vorinostat 0.09 | silmitasertib -0.068 | [5] 0.071 | entospletinib -0.426

PIGN (UniProt O95427)
inactive: dasatinib -0.153 | [7] -0.019 | [8] 0.227 | [6] 0.213 | [4] 0.022 | vorinostat -0.017 | silmitasertib 0.136 | entospletinib -0.126

PHGDH, A0A286YFE1
inactive: dasatinib 0.086 | [7] 0.258 | [8] -0.29

PLAUR (UniProt Q03405)
inactive: dasatinib 0.149 | [7] -0.509 | [6] 0.155 | vorinostat -0.063 | silmitasertib -0.157 | entospletinib -0.051

PHF20 (UniProt Q9BVI0)
inactive: quisinostat 0.353 | [3] 0.02 | [5] 0.018

PIGBOS1, A0A0B4J2F0
inactive: quisinostat 0.137 | [3] -0.121 | [5] 0.015

PIGH (UniProt Q14442)
inactive: quisinostat 0.159 | [3] -0.172 | [8] 0.054 | [6] -0.105 | [4] -0.065 | vorinostat 0.169 | silmitasertib -0.007 | [5] -0.132

PIMREG (UniProt Q9BSJ6)
inactive: quisinostat -0.019 | [3] -0.018 | [6] 0.198 | vorinostat -0.187 | silmitasertib 0.091 | [5] -0.14

Quoted at random: 2 entries already listed, in no set order.
PHF20 (UniProt Q9BVI0)
inactive: quisinostat 0.353 | [3] 0.02 | [5] 0.018

PLAUR (UniProt Q03405)
inactive: dasatinib 0.149 | [7] -0.509 | [6] 0.155 | vorinostat -0.063 | silmitasertib -0.157 | entospletinib -0.051

Continuation.

PLEC isoform 3 (UniProt Q15149)
inactive: quisinostat -0.048 | [3] 0.113 | [4] -0.158 | [5] -0.03 | entospletinib 0.104

PIP5K1B isoform 2 (UniProt O14986)
inactive: quisinostat -0.192 | [3] -0.049 | [5] 0.015
